Measurements as given in PubChem BioAssay AID1347076 (National Center for Advancing Translational Sciences (NCATS), 2019).
In all, about 400,000 compounds went through this assay and about 13,000 (3.2%) were called active. The shares of active, inactive and inconclusive entries below differ from those in the screen. Calls follow the shape of the dose curve; as a rule, active = well fitted cell-killing curve with a large enough effect; inconclusive = small, poorly fitted or top-dose-only effect, or effect the other way; inactive = flat fitted curve, though single readings scatter. A potency beside an inconclusive call is a rough fit, not a confirmed value.

Test: qHTS assay for MDR1-selective chemotherapeutics: Primary screen using the drug-selected MDR subline cells KB-V1; also: nearly all actives have a fitted effect of over 60% in size
Conditions: KB-V1 MDR cells viability, CellTiter-Glo, 72 h; series mostly up to 46.1 µM
Summary of the method: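 Following 72 h at 37 degrees C with compound, KB-V1 cell viability was read by CellTiter-Glo luminescence, medium being phenol-red-free DMEM plus 10% FBS; concentration-response parameters came from normalized, curve-fitted qHTS data.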
Potency is read from the fitted curve at half-maximal effect.

| Compound | Potency |
| --- | --- |
| CN=C1CC(C)(C)CC(=O)/C1=C(/O)CCCN1C(=O)c2ccccc2C1=O | inconclusive: 14.6 µM [cytotoxic, partial curve] |
| CCOC(=O)Cc1cc(C)[nH]c1C(=O)OCC | inconclusive: 32.6 µM [rising, partial curve, poor fit] |
| O=C(CCCCCn1c(=S)[nH]c2cc3c(cc2c1=O)OCO3)N1CCN(Cc2ccccc2)CC1 | inactive |
| O=C(Nc1ccccc1)c1snc2c(=O)[nH]cnc12 | active: 4.11 µM |
| Cc1ccc(C(=O)c2cn(Cc3ccccc3)c3nc(C)ccc3c2=O)cc1 | inactive |
| O=C(Nc1ccccc1Oc1cccnc1)C1CCCN(Cc2ccc(F)cc2)C1 (stereo not given) | inactive |
| COc1ccccc1NC(=O)COC(=O)c1ccccc1OCC(=O)Nc1ccc(SC(F)F)cc1 | active: 13 µM |
| Cc1cn([C@H]2C[C@H](O)[C@@H](CNC(=O)[C@H](N)C3CC3)O2)c(=O)[nH]c1=O | inactive |
| O=C(Cn1nc(C(=O)O)c2ccccc2c1=O)Nc1cc(Cl)ccc1-n1cncn1 | inconclusive: 29.1 µM [rising, single point] |
| Cc1cccc(N2CC(C(=O)Nc3ccccc3N3CCCC3)CC2=O)c1C (stereo not given) | inconclusive: 8.2 µM [cytotoxic, partial curve, poor fit] |
| O=C(NC(NC(=S)Nc1cccc(Cl)c1)C(Cl)(Cl)Cl)OCc1ccccc1 (stereo not given) | inconclusive: 23.1 µM [cytotoxic, single point] |
| O=C(COc1coc(CN2CCc3ccccc3C2)cc1=O)Nc1cccc(F)c1 | inactive |
| CCCCn1c(N)c(N(CC)C(=O)c2cc3c(s2)CCCCC3)c(=O)[nH]c1=O | inactive |
| Cc1ccc(OCCCn2c(-c3ccc(Cl)cc3)nc3ccccc3c2=O)c(C)c1 | inconclusive: 29.1 µM [rising, single point] |
| Cn1c(Sc2ccc([N+](=O)[O-])cc2C(F)(F)F)nnc1-c1ccccc1 | inconclusive: 25.9 µM [cytotoxic, partial curve, poor fit] |
| CCOc1ccc(NC(=O)c2nc(S(=O)(=O)Cc3ccc(F)cc3)ncc2Cl)cc1 | inconclusive: 2.91 µM [cytotoxic, single point] |
| Clc1ccc(-n2c(Cc3ccccc3)nnc2SCc2nc(-c3cccs3)no2)cc1 | inconclusive: 14.6 µM [cytotoxic, partial curve, poor fit] |
| COc1ccc(S(=O)(=O)N2CCCCCC2)cc1NC(=O)CCNC(=O)c1ccc(Cl)cc1 | inactive |
| COc1ccc(C)cc1NC(=O)COC(=O)C1COc2ccccc2O1 (stereo not given) | inconclusive: 32.6 µM [rising, single point] |
| COC(=O)C(F)(Sc1c(C)n(C)n(-c2ccccc2)c1=O)C(F)(F)F (stereo not given) | inactive |
| CCOC(=O)c1scc(-c2ccc(C)cc2)c1S(=O)(=O)Nc1cc(OC)ccc1OC | inactive |
| O=C(NC(c1ccc(Cl)cc1)c1ccsc1)C1CCN(Cc2ccc(Oc3ccccc3)cc2)CC1 (stereo not given) | inactive |
| Oc1cccc(Nc2nc(NCC3CCCO3)c3ccccc3n2)c1 (stereo not given) | active: 18.4 µM |
| COc1ccc(CC(=O)N(C)Cc2ccc(Cl)cc2)cc1S(=O)(=O)N1CCOCC1 | inconclusive: 25.9 µM [cytotoxic, single point] |

| Compound | Potency |
| --- | --- |
| Cc1cccc(N(C)C(=O)c2cc3c(=O)[nH]c4ccc(C)cc4c3s2)c1 | inconclusive: 4.61 µM [cytotoxic, partial curve, poor fit] |
| COc1cc(CNC(=O)Nc2nc(C(N)Cc3ccc(C(F)(F)F)cc3)cs2)cc(OC)c1OC (stereo not given) | inactive |
| CCCCCN(C(=O)CCC(=O)OCc1cccc(F)c1)c1c(N)n(CCCC)c(=O)[nH]c1=O | inconclusive: 29.1 µM [rising, single point] |
| CCOc1cc(C#N)c(-n2nnc3c(sc4nc(C)cc(C)c43)c2=O)cc1OCC | inactive |
| CCCCN(C)C(=O)c1ccc2c(c1)N(Cc1cccc(F)c1)C(=O)c1ccccc1S2 | inconclusive: 23.1 µM [cytotoxic, partial curve, poor fit] |
| CC(CNC(=O)Cn1ccc(NC(=O)OCc2ccccc2)nc1=O)c1ccccc1 (stereo not given) | inactive |
| Cc1ccc(C(=O)CC(=O)c2ccc(C(C)(C)C)cc2)cc1 | inactive |
| Cc1ccc2c(c1)C1CC(C)(O2)N(c2cccc(C(=O)NCc3ccccn3)c2)C(=O)N1 (stereo not given) | inconclusive: 29.1 µM [rising, single point] |
| O=C(COC(=O)c1ccco1)Nc1ccc2c(c1)OCCO2 | inconclusive: 29.1 µM [rising, single point] |
| Cn1nnnc1Sc1ncnc2scc(-c3ccsc3)c12 | inactive |
| Cc1[nH]c(C(=O)O)c(C#N)c1C(=O)c1ccccc1 | inconclusive: 20.6 µM [rising, single point] |
| CCCC1Cc2c(sc3ncnc(N)c23)CO1 (stereo not given) | inconclusive: 20.6 µM [cytotoxic, single point] |
| CCN1CCCC1CNC(=O)C(=O)Nc1ccc(OC)cc1 (stereo not given) | inactive |
| Cc1nn(-c2ccccc2)c2c1N(CC(=O)N1CCN(c3ccccc3F)CC1)C(=O)CS2 | inactive |
| COc1ccc(S(=O)(=O)N(C)C[C@@H]2OCc3cn(nn3)CCCC(=O)N([C@@H](C)CO)C[C@H]2C)cc1 | inconclusive: 29.1 µM [cytotoxic, single point] |
| O=S(=O)(/N=C(/Nc1ccc(F)c(F)c1F)c1ccccc1)c1ccccc1 | inconclusive: 20.6 µM [cytotoxic, single point] |
| O=C(c1cnc(N2CCN(c3ccccn3)CC2)c2ccccc12)N1CCN(c2cccc(Cl)c2)CC1 | inconclusive: 2.91 µM [cytotoxic, full curve] |
| CCN(CC)c1ccc(C2Nc3ccccc3-c3cc(C)nn32)cc1 (stereo not given) | inactive |
| O=C(Nc1nc(-c2ccccc2)cs1)c1cccnc1 | inconclusive: 23.1 µM [cytotoxic, partial curve] |
| CCCCCCNC(=O)CC(NS(=O)(=O)c1ccc(OC)cc1)C(C)C (stereo not given) | inconclusive: 8.2 µM [cytotoxic, partial curve] |
| CN(C)S(=O)(=O)Oc1ccsc1C(=O)Nc1ccc(Br)cc1 | inconclusive: 18.4 µM [cytotoxic, single point] |
| COc1cc(/C=C2\CCc3ccccc3C2=O)cc(OC)c1OC | inconclusive: 9.2 µM [cytotoxic, partial curve] |
| CN(C)c1cc(C(F)(F)F)nc(-c2ccccn2)n1 | inconclusive: 16.4 µM [cytotoxic, single point] |
| CCOCCCNC(=O)/C(C#N)=C/c1ccc(Cl)c([N+](=O)[O-])c1 | inconclusive: 29.1 µM [cytotoxic, single point] |

3 of the compounds above, bar-delimited.
Compound | Potency
Cc1[nH]c(C(=O)O)c(C#N)c1C(=O)c1ccccc1 | inconclusive: 20.6 µM [rising, single point]
CCCC1Cc2c(sc3ncnc(N)c23)CO1 (stereo not given) | inconclusive: 20.6 µM [cytotoxic, single point]
CCN1CCCC1CNC(=O)C(=O)Nc1ccc(OC)cc1 (stereo not given) | inactive

(more compounds)

| Compound | Potency |
| --- | --- |
| Cc1cc2cc(CN(CC3CCCO3)C(=S)Nc3ccccc3)c(=O)[nH]c2cc1C (stereo not given) | inactive |
| COc1ccc(Cl)cc1NC(=O)CN(C)C(C)C(=O)NC(=O)NC1CCCCC1 (stereo not given) | inconclusive: 5.17 µM [cytotoxic, partial curve] |
| CCCCN(CCCNC(=O)c1cc(Nc2ccccc2OC)nc2ccccc12)c1ccccc1 | inactive |
| O=C1CCC(C(=O)Nc2ccc(OC(F)F)cc2)N1 (stereo not given) | inconclusive: 29.1 µM [rising, single point] |
| CCC/C(C#Cc1ccc(N(C)C)cc1)=C1/c2ccccc2C(=O)N1c1ccccc1 | inactive |
| CCOc1ccc(NC(=O)CSc2nc3ccsc3c(=O)n2Cc2ccc(C(=O)O)cc2)cc1 | inactive |
| CC(=O)C1=C(O)C(=O)N(c2ccc(Br)cn2)C1c1ccccc1[N+](=O)[O-] (stereo not given) | inactive |
| COc1ccc(CC(N)c2csc(NC(=O)CCc3ccccc3)n2)cc1 (stereo not given) | inconclusive: 8.2 µM [cytotoxic, partial curve] |
| O=C(Nc1ccc2nc3n(c(=O)c2c1)CCCCC3)c1cccc(C(F)(F)F)c1 | inconclusive: 23.1 µM [cytotoxic, partial curve, poor fit] |
| O=C(CCC1N=C2c3ccccc3N=C(SCC(=O)Nc3ccc(F)cc3)N2C1=O)NCc1ccco1 (stereo not given) | inconclusive: 29.1 µM [cytotoxic, single point] |
| CCCCOc1ccc(-c2nnc(-c3ccncc3)o2)cc1 | inconclusive: 29.1 µM [cytotoxic, single point] |
| O=c1[nH]c2cc3c(cc2cc1C(c1nnnn1C1CCCC1)N1CCSCC1)OCCO3 (stereo not given) | active: 10.3 µM |
| CCN1C(=O)/C(=C\c2nc3ccccc3c(=O)n2-c2ccccc2)c2ccccc21 | inconclusive: 29.1 µM [cytotoxic, single point] |
| CN1/C(=C\C(=O)c2cccnc2)Sc2ccccc21 | inconclusive: 10.3 µM [cytotoxic, partial curve, poor fit] |
| C#CCSc1nnnn1-c1cccc(Cl)c1 | inactive |
| Nc1c(C(=O)c2ccccc2)sc2nsc(SCCN3CCOCC3)c12 | inconclusive: 7.31 µM [cytotoxic, partial curve] |
| CCCN(C(=O)COc1ccc(Cl)cc1Cl)c1c(N)n(Cc2ccccc2)c(=O)[nH]c1=O | inconclusive: 29.1 µM [rising, single point] |
| CC(=O)Nc1ccc2c(c1)N(C(C)=O)c1ccccc1CC2 | inactive |
| O=C(c1ccc(Br)cc1)c1sc(N2CCOCC2)nc1-c1ccccc1 | inconclusive: 5.8 µM [cytotoxic, partial curve, poor fit] |
| COC(=O)C(NC(=O)c1ccc(Cl)cc1)(Nc1nc(C)cs1)C(F)(F)F (stereo not given) | inconclusive: 20.6 µM [cytotoxic, single point] |
| COc1ccccc1C(CCN(Cc1cccs1)C(C)=O)c1ccco1 (stereo not given) | inactive |
| CC(SC1CCCC1)C(=O)Nc1ccnn1C(C)C (stereo not given) | inconclusive: 23.1 µM [cytotoxic, single point] |

Reformatted: entries from further up
Compound,Potency
CC(=O)C1=C(O)C(=O)N(c2ccc(Br)cn2)C1c1ccccc1[N+](=O)[O-] (stereo not given),inactive
COc1ccc(CC(N)c2csc(NC(=O)CCc3ccccc3)n2)cc1 (stereo not given),"inconclusive: 8.2 µM [cytotoxic, partial curve]"
